Test results from PubChem BioAssay AID504847 (National Center for Advancing Translational Sciences (NCATS), 2011).
Among all 400,000 compounds or so, about 3,700 (0.93%) were called active. The shares of active, inactive and inconclusive entries below differ from those in the screen. Calls come from the whole dose curve; as a rule, active = well fitted inhibition curve with a large enough effect; inconclusive = small, poorly fitted or top-dose-only effect, or another doubt; inactive = no such curve, though single readings can be large or run the other way. Potencies of inconclusive entries are doubtful fits and often do not repeat.

Protein sequences, listed by entry. Tags and fused reporters are not part of them. Lines headed by an entry give the natural chain unless they say otherwise; changes in a name come on top.
UniProt P11473: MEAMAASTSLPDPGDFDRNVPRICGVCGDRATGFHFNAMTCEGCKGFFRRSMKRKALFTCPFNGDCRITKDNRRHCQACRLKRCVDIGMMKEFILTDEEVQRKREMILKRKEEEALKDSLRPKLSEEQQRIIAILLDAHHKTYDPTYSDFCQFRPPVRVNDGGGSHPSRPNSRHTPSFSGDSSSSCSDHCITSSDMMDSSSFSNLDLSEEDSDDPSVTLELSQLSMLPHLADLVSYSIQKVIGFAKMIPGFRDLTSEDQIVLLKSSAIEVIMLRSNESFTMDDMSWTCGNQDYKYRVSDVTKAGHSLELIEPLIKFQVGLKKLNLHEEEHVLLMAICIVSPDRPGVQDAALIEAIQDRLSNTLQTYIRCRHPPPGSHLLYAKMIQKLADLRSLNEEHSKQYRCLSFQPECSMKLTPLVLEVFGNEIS

These compounds were tested against Vitamin D3 receptor (Homo sapiens) (UniProt P11473) (assay: Inhibitors of the vitamin D receptor (VDR): qHTS). Details: VDR-SRC2-3 peptide fluorescence polarization, 2 h; max response, negative = inhibition: hits give low values.
Method in brief: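 Compounds are added to VDR with labelled SRC2-3 coactivator peptide and held 2 h at room temperature. Inhibition of the VDR–peptide interaction is then read as a change in fluorescence polarization.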
% is set by controls: 0 for no effect and ±100 for the full control effect; potency is the fitted concentration of half-maximal effect.

SMILES	Potency	max response, negative = inhibition
O=C1/C(=C/c2ccc(O)c(O)c2)Oc2ccccc21	inconclusive: 39.8 µM [inhibitor, partial curve, poor fit]	–
COc1cccc2sc3cc(NCc4ccc(C)o4)ccc3c(=O)c12	active: 89.1 µM	–
CCCCCCCNC(=O)C1(CC2CC(c3ccc(Cl)cc3)=NO2)CCN(C(=O)c2ccccc2)CC1 (centres undefined)	–	inactive: -14.2%
CCCCS(=O)(=O)/C=C\C=C/S(=O)(=O)CCCC	active: 35.5 µM	–
COc1cc(C(=S)NC2CCCCC2)ccc1O	inconclusive: 89.1 µM [inhibitor, single point]	–
COC(=O)c1c(NC(=O)/C(C#N)=C/c2ccccc2)sc2c1CCC2	inconclusive: 89.1 µM [inhibitor, partial curve, poor fit]	–
CCCCN(CC)C(=O)CSc1c2c(nc3ccc(Cl)cc13)CCCC2	inconclusive: 50.1 µM [inhibitor, partial curve, poor fit]	–
Cc1cc(=O)[nH]c2nnnn12	inconclusive: 22.4 µM [inhibitor, single point]	–
O=C1CCCN1C(=O)COc1cc(F)ccc1[N+](=O)[O-]	inconclusive: 89.1 µM [inhibitor, single point]	–
CC12CCC(=O)N1C(C(=O)NCc1ccccc1Cl)CS2 (centres undefined)	inconclusive: 70.8 µM [inhibitor, partial curve]	–
C=CCn1c(N)c(C(=O)OC(C)(C)C)c2nc3ccccc3nc21	inconclusive: 89.1 µM [inhibitor, single point]	–
Cc1ccccc1S(=O)(=O)NC1OC(=O)C(Cl)=C1Cl (centres undefined)	inconclusive: 100 µM [inhibitor, single point]	–
O=C1CC2c3ccccc3C1C1C(=O)N(CCO)C(=O)C21 (centres undefined)	inconclusive: 89.1 µM [inhibitor, partial curve, poor fit]	–
CCC(C)c1cc([N+](=O)[O-])cc([N+](=O)[O-])c1OC(=O)OC(C)C (centres undefined)	active: 11.2 µM	–
Cn1c(SCc2ccccc2C#N)nc2ccccc2c1=O	inconclusive: 22.4 µM [inhibitor, partial curve, poor fit]	–
Cc1ccc(C2=NC(=O)/C(=C/c3cc(O)c(O)c(Br)c3)S2)cc1	inconclusive: 39.8 µM [inhibitor, single point]	–
CC(=O)Nc1ccc(NC(=S)NC(=O)c2ccc(C(C)(C)C)cc2)cc1	inconclusive: 12.6 µM [inhibitor, partial curve, poor fit]	–
COc1cccc(OCC(=O)N(C)Cc2nc(-c3cccc(C)c3)no2)c1	–	inactive: -6.07%
Cc1ccc(S(=O)(=O)N(C(=O)c2ccncc2)c2ccc(OC(=O)c3ccncc3)c3ccccc23)cc1	inconclusive: 15.8 µM [inhibitor, full curve, poor fit]	–

2 compounds picked at random from the list so far:
SMILES	Potency	max response, negative = inhibition
Cc1ccc(S(=O)(=O)N(C(=O)c2ccncc2)c2ccc(OC(=O)c3ccncc3)c3ccccc23)cc1	inconclusive: 15.8 µM [inhibitor, full curve, poor fit]	–
Cc1ccc(C2=NC(=O)/C(=C/c3cc(O)c(O)c(Br)c3)S2)cc1	inconclusive: 39.8 µM [inhibitor, single point]	–
